# Experimental data: PubChem BioAssay AID720505 (Drosophila RNAi Screening Center, 2013)
# Purpose: 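Knock-downs that reduce calcium influx once internal stores are emptied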 (primary screen)
# Cells: Drosophila S2R+ cells
# Reagent: long dsRNA against Drosophila genes
# Treatment: thapsigargin (2 µM) in calcium-free buffer to empty internal stores, then 2 mM calcium added back
# Measured: 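Stores emptied by 2 µM thapsigargin without calcium, then 2 mM calcium re-added; fluo-4 fluorescence followed by FLIPR in 384-well plates, per-well averaged endpoint, raw; two screen passes, some wells retested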
# Scale: calcium signal and retest calcium signal: higher = more calcium entry after store depletion
# Rule for the call: 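Knock-downs counted as hits when calcium entry dropped relative to STIM1 positive and Rho1 negative controls present on each plate; roughly 1500 genes called, with reductions of differing size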
# Calls: active = called as lowering calcium entry; inactive = not called
# The deposit covers about 20,000 reagents; this is a random part of those that have a named target and a result. In the full data, about 2,100 (10%) were called active. 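Raw plate signals without normalisation; calls rest on control-based scores that were not deposited; replicate 2 separates called from uncalled poorly.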 A number with no mark means an inactive call. A plus sign joins genes that one reagent is predicted to hit. Not given: the amount of reagent, the time to read-out.
gene,dsRNA,"calcium signal, replicate 1","calcium signal, replicate 2","retest calcium signal, replicate 1","retest calcium signal, replicate 2"
Hsc70-3,DRSC20253,55.4 (active),81.4,,
CG43996 + CG43997,DRSC19456,93.5,124,,
CG43996 + CG43997,DRSC19457,117,131,,
CG42376 + cin,DRSC18752,119,129,,
unc-104,DRSC07710,165,133,,
heph,DRSC15436,95.7,129,,
heph,DRSC16783,82.9,157,,
Dpy-30L2,DRSC08205,114,84.9,,
CG16824,DRSC02525,76.4 (active),89.4,,
Cbp80,DRSC18450,93.7,110,,
scyl,DRSC11392,90,112,,
eEF1alpha2,DRSC16658,103,132,,
CG3760,DRSC04415,184,156,,
CR40450 + CG32767,DRSC18387,83.8,82.3,,
Hsf,DRSC07443,141,84.5,,
ds,DRSC00815,139,138,,
CG7295,DRSC00699,83.8,155,,
ens,DRSC08454,66.4 (active),112,,
mfas,DRSC16997,138,124,,
CG14132,DRSC10136,52 (active),54.2,,
CG31211,DRSC14953,113,139,143,133
CG31211,DRSC15344,161,83.5,,
CG31211,DRSC21478,145,95.7,,
Dnaaf6,DRSC10473,84.9,135,,
Orct2,DRSC14613,170,214,,
Elp2,DRSC06095,192,144,,
Fur2,DRSC19817,116,135,,
Cpr47Ed,DRSC07331,89.3,178,,
Ir67a,DRSC09897,71.9,117,,
CG5846,DRSC02904,120,93.4,,
Dscam3,DRSC14525,132,153,,
Dscam3,DRSC16376,134,158,,
CG12310,DRSC09878,95.4,228,,
Jhbp4,DRSC14222,111,160,,
Reck,DRSC10504,129,80.6,,
Reck,DRSC10505,92.1,144,,
CG18449,DRSC06754,118,141,,
COX5BL,DRSC02123,139,129,,
CG7785,DRSC16311,70.9 (active),145,,
TBC1D23,DRSC00657,203,143,,
RalGPS,DRSC06941,111,120,,
Oatp33Eb,DRSC02955,117,144,,
CycY,DRSC02420,114,103,,
Fmr1,DRSC16674,83.8,78.4,,
Paip1,DRSC07302,67 (active),129,,
CG15120,DRSC06542,140,149,,

Records above whose gene name starts with C or c:
gene,dsRNA,"calcium signal, replicate 1","calcium signal, replicate 2","retest calcium signal, replicate 1","retest calcium signal, replicate 2"
CG43996 + CG43997,DRSC19456,93.5,124,,
CG43996 + CG43997,DRSC19457,117,131,,
CG42376 + cin,DRSC18752,119,129,,
CG16824,DRSC02525,76.4 (active),89.4,,
Cbp80,DRSC18450,93.7,110,,
CG3760,DRSC04415,184,156,,
CR40450 + CG32767,DRSC18387,83.8,82.3,,
CG7295,DRSC00699,83.8,155,,
CG14132,DRSC10136,52 (active),54.2,,
CG31211,DRSC14953,113,139,143,133
CG31211,DRSC15344,161,83.5,,
CG31211,DRSC21478,145,95.7,,
Cpr47Ed,DRSC07331,89.3,178,,
CG5846,DRSC02904,120,93.4,,
CG12310,DRSC09878,95.4,228,,
CG18449,DRSC06754,118,141,,
COX5BL,DRSC02123,139,129,,
CG7785,DRSC16311,70.9 (active),145,,
CycY,DRSC02420,114,103,,
CG15120,DRSC06542,140,149,,

The list goes on:
gene,dsRNA,"calcium signal, replicate 1","calcium signal, replicate 2","retest calcium signal, replicate 1","retest calcium signal, replicate 2"
CG4645,DRSC19907,136,113,,
CG12674,DRSC00348,88.1,147,,
CG43131,DRSC12046,8593,182,,
TBC1d7,DRSC15985,188,131,,
Prosbeta7,DRSC12186,63.4 (active),70,,
tkv,DRSC00860,68.5,130,,
tkv,DRSC03623,95.5,290,,
tkv,DRSC22606,103,143,,
CG14252,DRSC14747,188,208,,
CG30350,DRSC07690,62.3 (active),99.9,,
row,DRSC07076,97.4,103,,
row,DRSC07077,104,154,,
dhd,DRSC18761,128,68.2,,
CG17738,DRSC15257,53.5 (active),105,,
CG5347,DRSC19942,68 (active),129,,
CG34342,DRSC09756,99.7,64.4,,
CG34342,DRSC22515,107,169,,
CG3328,DRSC04357,171,97.9,,
l(2)gl,DRSC00825,163,215,,
Sodh1,DRSC12605,99.6,141,,
CG6013,DRSC15947,111,204,,
unc-45,DRSC15449,131,176,,
jagn,DRSC12152,146,100,,
Zip42C.2,DRSC05004,129,174,,
CG3748,DRSC02716,180,128,,
CG7271,DRSC22561,89.3,193,,
CG31898,DRSC01019,183,87.5,,
CG13675,DRSC10034,58.6,66.4,,
CG13675,DRSC23124,104,185,,
Srp19,DRSC11288,60.5 (active),53.9,,
cn,DRSC07594,107,196,,
nej,DRSC18006,64 (active),104,,
nej,DRSC18801,121,179,,
Agpat1,DRSC19879,98.8,104,,
Agpat1,DRSC19880,75.9,110,,
caup,DRSC11334,91.1,90.3,,
caup,DRSC23050,118,157,,
kek4,DRSC03220,71.3,95,,
Lcp9,DRSC04287,65.2 (active),178,,
CG14315,DRSC14794,122,95,,
Tango2,DRSC19394,138,136,,
Tango2,DRSC21526,168,85.8,,
CG8837,DRSC00711,113,107,,
Acf,DRSC14101,80.8,99,,
CG7656,DRSC10900,126,69.3,,
seq,DRSC06863,123,129,,
CG33203,DRSC14874,164,127,,
CG33203,DRSC14876,141,147,,
CG33203,DRSC14877,145,166,89,79.8
Ir10a,DRSC19478,109,80.4,,
Ir10a,DRSC19479,64.1 (active),125,,
Lrt,DRSC06045,69.1,105,,
Hsp70Aa + Hsp70Bb + Hsp70Ba + 3 more,DRSC15380,65 (active),125,,
RpL4,DRSC16833,72.5,123,,
CG1418,DRSC06447,87.8,128,,
gammaTub23C,DRSC00820,110,211,,
CG5421,DRSC02858,114,126,,
CG12994,DRSC19192,97.2,93.2,,
CG12994,DRSC19514,72.5 (active),134,,
CG17486,DRSC07752,149,90,,
